± gives the standard deviation of the averaged measurements. The list shows a part of the results.

Chains of the proteins cited; added tags and fusions are not shown. Lines headed by an entry give the natural chain unless they say otherwise; changes in a name come on top.
UniProt Q4G0J3: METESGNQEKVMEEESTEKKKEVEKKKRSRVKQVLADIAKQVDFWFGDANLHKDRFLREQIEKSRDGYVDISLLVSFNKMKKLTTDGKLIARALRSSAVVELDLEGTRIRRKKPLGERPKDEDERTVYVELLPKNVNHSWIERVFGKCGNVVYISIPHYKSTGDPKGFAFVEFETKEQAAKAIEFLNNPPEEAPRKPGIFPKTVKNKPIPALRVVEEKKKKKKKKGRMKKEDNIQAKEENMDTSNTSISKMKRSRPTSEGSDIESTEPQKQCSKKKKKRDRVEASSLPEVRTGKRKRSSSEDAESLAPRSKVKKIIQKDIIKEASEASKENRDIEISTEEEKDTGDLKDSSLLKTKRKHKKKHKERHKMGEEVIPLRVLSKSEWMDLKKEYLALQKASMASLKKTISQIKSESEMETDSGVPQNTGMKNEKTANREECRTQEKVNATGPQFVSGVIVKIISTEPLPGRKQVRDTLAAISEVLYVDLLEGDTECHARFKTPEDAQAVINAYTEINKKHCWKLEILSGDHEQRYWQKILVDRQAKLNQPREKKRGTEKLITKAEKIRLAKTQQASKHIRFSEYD
UniProt Q3KRA6: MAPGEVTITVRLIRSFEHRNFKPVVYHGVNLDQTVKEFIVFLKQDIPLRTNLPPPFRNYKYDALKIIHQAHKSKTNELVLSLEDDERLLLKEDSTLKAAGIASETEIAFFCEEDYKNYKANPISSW
UniProt Q53H12: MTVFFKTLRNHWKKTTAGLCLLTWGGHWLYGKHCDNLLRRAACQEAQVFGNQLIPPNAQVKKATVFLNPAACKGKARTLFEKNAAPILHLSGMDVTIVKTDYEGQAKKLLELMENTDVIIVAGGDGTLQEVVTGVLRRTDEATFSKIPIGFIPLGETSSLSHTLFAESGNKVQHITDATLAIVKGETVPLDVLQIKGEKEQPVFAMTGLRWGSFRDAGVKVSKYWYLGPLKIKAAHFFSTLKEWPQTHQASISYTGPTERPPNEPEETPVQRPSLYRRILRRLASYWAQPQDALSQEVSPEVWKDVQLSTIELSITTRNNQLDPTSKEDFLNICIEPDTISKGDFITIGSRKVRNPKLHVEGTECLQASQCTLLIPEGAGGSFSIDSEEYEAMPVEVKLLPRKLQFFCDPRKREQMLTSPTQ
UniProt Q14746: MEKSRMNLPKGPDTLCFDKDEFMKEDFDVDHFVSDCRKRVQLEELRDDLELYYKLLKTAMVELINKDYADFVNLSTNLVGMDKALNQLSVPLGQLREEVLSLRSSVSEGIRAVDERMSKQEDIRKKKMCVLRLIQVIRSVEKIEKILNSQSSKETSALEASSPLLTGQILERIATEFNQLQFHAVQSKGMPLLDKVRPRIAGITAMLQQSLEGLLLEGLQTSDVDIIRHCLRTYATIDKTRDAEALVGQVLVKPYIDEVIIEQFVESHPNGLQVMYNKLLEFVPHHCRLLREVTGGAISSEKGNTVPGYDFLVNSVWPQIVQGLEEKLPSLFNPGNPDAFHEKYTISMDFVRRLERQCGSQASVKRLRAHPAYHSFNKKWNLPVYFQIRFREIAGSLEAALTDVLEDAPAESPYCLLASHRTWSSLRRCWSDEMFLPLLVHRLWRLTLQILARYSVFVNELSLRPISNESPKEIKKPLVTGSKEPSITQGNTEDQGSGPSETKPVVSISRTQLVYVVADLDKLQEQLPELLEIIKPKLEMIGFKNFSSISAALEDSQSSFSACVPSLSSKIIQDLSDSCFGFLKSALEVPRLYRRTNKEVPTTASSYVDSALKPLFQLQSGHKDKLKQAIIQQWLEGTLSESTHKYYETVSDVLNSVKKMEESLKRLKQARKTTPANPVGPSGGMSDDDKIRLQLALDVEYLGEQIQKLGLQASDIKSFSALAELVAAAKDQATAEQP
UniProt Q14789: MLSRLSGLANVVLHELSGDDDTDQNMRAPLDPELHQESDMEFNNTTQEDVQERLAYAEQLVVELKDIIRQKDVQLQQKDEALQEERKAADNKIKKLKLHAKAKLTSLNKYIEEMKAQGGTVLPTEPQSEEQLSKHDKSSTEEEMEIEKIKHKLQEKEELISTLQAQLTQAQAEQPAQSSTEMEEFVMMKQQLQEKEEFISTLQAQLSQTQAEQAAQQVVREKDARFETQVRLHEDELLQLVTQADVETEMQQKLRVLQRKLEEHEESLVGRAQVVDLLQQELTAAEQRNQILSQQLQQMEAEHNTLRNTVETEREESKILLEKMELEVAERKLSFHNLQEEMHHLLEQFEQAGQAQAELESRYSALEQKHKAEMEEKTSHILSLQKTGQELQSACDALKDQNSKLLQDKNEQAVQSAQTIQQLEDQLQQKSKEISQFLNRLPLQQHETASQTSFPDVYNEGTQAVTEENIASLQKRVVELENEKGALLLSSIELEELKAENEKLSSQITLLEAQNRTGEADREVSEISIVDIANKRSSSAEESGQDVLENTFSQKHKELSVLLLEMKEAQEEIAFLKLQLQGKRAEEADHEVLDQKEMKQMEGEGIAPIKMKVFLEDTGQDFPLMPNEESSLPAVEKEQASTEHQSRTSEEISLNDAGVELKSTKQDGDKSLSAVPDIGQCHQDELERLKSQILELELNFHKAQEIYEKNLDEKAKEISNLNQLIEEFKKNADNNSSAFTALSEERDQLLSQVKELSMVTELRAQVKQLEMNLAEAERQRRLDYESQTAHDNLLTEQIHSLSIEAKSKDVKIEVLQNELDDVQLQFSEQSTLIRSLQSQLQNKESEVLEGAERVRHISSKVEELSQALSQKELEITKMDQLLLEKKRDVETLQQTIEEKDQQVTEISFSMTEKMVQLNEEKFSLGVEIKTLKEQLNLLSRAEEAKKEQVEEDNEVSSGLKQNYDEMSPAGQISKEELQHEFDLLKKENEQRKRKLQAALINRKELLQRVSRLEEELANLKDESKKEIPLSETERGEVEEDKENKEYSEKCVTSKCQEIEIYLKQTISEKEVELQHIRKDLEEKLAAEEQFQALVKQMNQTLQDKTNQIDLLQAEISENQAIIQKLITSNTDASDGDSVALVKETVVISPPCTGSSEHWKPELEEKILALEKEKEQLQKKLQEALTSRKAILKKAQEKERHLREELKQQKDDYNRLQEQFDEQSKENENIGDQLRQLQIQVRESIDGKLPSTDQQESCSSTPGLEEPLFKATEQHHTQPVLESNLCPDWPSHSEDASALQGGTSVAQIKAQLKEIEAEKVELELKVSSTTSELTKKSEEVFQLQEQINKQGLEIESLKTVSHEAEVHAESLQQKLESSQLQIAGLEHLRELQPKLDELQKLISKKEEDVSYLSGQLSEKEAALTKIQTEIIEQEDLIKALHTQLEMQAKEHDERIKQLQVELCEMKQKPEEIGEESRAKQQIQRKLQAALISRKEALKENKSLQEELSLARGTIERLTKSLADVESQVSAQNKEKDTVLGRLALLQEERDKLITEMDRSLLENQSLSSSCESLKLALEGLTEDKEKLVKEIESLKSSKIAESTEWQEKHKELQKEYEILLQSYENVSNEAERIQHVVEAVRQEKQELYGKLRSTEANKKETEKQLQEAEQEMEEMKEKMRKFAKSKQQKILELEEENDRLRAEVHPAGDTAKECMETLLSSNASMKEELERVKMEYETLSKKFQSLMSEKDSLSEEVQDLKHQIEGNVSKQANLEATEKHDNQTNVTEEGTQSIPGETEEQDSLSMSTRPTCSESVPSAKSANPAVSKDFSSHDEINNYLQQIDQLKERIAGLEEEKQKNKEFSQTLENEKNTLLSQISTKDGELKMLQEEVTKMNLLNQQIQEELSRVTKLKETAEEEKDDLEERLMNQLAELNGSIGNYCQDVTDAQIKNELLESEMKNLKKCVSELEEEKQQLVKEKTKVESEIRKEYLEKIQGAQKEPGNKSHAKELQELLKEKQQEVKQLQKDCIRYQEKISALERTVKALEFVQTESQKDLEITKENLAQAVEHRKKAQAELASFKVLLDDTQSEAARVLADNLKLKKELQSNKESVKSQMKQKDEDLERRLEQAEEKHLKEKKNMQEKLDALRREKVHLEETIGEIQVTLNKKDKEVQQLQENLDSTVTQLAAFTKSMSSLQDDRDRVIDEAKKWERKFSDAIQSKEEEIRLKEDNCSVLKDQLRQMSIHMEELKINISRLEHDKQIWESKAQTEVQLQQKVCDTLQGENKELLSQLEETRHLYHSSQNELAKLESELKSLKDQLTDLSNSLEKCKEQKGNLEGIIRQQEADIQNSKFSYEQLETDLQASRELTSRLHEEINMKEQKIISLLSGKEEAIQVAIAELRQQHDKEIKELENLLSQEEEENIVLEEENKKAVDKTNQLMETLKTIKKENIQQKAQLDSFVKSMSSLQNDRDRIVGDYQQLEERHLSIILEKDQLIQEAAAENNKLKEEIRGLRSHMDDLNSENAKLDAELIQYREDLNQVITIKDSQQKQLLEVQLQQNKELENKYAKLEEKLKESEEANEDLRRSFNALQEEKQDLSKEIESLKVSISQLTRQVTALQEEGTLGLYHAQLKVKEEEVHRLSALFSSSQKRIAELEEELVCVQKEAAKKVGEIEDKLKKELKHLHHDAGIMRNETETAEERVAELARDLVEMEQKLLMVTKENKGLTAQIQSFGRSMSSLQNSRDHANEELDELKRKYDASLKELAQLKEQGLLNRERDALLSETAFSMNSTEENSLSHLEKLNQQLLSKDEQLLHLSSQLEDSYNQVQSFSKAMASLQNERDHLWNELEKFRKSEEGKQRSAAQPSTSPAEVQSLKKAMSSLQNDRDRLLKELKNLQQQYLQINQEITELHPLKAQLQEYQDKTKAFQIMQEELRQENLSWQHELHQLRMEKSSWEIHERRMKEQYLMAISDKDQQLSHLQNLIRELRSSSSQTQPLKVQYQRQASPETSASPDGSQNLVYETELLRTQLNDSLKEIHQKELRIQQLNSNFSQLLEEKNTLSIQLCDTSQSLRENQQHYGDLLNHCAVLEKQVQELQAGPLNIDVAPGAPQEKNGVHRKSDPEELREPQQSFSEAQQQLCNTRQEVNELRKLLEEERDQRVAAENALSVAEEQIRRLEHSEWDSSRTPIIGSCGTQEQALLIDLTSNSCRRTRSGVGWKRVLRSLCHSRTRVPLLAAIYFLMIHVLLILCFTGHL

Compound in the test: Nc1nc2c(ncn2[C@@H]2O[C@H](COP(=O)(O)OP(=O)(O)OP(=O)(O)O)[C@@H](O)[C@H]2O)c(=O)[nH]1 [guanosine triphosphate]
Put plainly: NP40-soluble protein abundance relative to vehicle (solubility fold change) (ratio); higher = more soluble protein in presence of GTP. The protocol:
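Solubility proteome profiling in Jurkat crude lysate. Lysate was treated with Mg-GTP (0.1-10 mM) for 10 min at room temperature and 3 min at 37 °C, then solubilised with 0.8% NP40 and benzonase, followed by ultracentrifugation. Proteins were quantified by TMT10 LC-MS/MS; the value is the NP40-soluble abundance relative to the NP40-processed vehicle, from 3 independent experiments.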

With UniProt Q4G0J3 and related entries, the NP40-soluble protein abundance reads like this: (concentration: 0.1mM) 1.09 ± 0.026; (concentration: 0.5mM) 1.02 ± 0.017; (concentration: 1mM) 1.1 ± 0.051; (concentration: 2mM) 1.17 ± 0.061; (concentration: 4mM) 1.3 ± 0.079; (concentration: 6mM) 1.35 ± 0.11. Besides, the NP40-soluble protein abundance stood at 1.41 ± 0.13 (concentration: 8mM) and 1.49 ± 0.1 (concentration: 10mM).
C2orf76 (UniProt Q3KRA6): the NP40-soluble protein abundance runs as follows: (concentration: 0.1mM) 1.03 ± 0.14; (concentration: 0.5mM) 0.986 ± 0.16; (concentration: 1mM) 1.01 ± 0.054; (concentration: 2mM) 1.06 ± 0.16; (concentration: 4mM) 0.981 ± 0.14; (concentration: 6mM) 1.03 ± 0.1. Besides, the NP40-soluble protein abundance is, setting by setting: (concentration: 8mM) 0.974 ± 0.12; (concentration: 10mM) 0.935 ± 0.076.
As to UniProt Q53H12 and related entries, the NP40-soluble protein abundance reads like this: (concentration: 0.1mM) 1.05 ± 0.034; (concentration: 0.5mM) 1.07 ± 0.028; (concentration: 1mM) 0.997 ± 0.021; (concentration: 2mM) 1 ± 0.016; (concentration: 4mM) 0.976 ± 0.018; (concentration: 6mM) 1 ± 0.024. The NP40-soluble protein abundance is, setting by setting: (concentration: 8mM) 0.983 ± 0.015; (concentration: 10mM) 0.904 ± 0.045.
Consider UniProt Q14746 and related entries, for which the NP40-soluble protein abundance runs as follows: (concentration: 0.1mM) 1.03 ± 0.031; (concentration: 0.5mM) 0.998 ± 0.027; (concentration: 1mM) 1.08 ± 0.045; (concentration: 2mM) 1.07 ± 0.045; (concentration: 4mM) 1.09 ± 0.035; (concentration: 6mM) 1.12 ± 0.068. Also, the NP40-soluble protein abundance reads like this: (concentration: 8mM) 1.12 ± 0.1; (concentration: 10mM) 1.13 ± 0.076.
Regarding UniProt Q14789 and related entries, the NP40-soluble protein abundance was 1 ± 0.019 (concentration: 0.1mM); 0.984 ± 0.041 (concentration: 0.5mM); 1.02 ± 0.022 (concentration: 1mM); 0.989 ± 0.049 (concentration: 2mM); 0.993 ± 0.026 (concentration: 4mM); 1 ± 0.035 (concentration: 6mM). For the same target, the NP40-soluble protein abundance runs as follows: (concentration: 8mM) 1.02 ± 0.046; (concentration: 10mM) 1.01 ± 0.051.

Source of the values: the supplement of paper PMC6411743.
